The experiment concerns the target Poly-C Binding Protein 2 (PCBP2) (mouse (endogenous in murine hepatocyte 3A cells)) (UniProt Q61990). Put plainly: co-IP.

Chains of the proteins cited; added tags and fusions are not shown.
UniProt Q61990: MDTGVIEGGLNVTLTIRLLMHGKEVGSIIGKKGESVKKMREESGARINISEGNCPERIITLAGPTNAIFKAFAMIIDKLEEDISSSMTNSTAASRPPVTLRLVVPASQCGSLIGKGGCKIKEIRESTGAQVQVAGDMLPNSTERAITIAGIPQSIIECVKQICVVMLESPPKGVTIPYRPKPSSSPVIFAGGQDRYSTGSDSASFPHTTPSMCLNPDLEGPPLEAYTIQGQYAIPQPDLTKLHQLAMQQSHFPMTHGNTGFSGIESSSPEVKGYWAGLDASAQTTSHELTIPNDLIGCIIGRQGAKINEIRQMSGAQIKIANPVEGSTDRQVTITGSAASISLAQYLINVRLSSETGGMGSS

No constants are given. Whether binding was seen depends on the method and setting. In cells and extracts the contact can be indirect. Some results given as binding are weak or reduced against the parent protein; the word gives no strength. Where a sequence is shown, tags or fusion partners need not be part of it.

Among the data in publication doi:10.1101/2024.11.15.623754 are binding values, retold here.

B1: Synaptotagmin-binding Cytoplasmic RNA-Interacting Protein (SYNCRIP) (protein, UniProt Q7TMK9 1-623)
chain: MATEHVNGNGTEEPMDTTSAVIHSENFQTLLDAGLPQKVAEKLDEIYVAGLVAHSDLDERAIEALKEFNEDGALAVLQQFKDSDLSHVQNKSAFLCGVMKTYRQREKQGTKVADSSKGPDEAKIKALLERTGYTLDVTTGQRKYGGPPPDSVYSGQQPSVGTEIFVGKIPRDLFEDELVPLFEKAGPIWDLRLMMDPLTGLNRGYAFVTFCTKEAAQEAVKLYNNHEIRSGKHIGVCISVANNRLFVGSIPKSKTKEQILEEFSKVTEGLTDVILYHQPDDKKKNRGFCFLEYEDHKTAAQARRRLMSGKVKVWGNVGTVEWADPIEDPDPEVMAKVKVLFVRNLANTVTEEILEKSFSQFGKLERVKKLKDYAFIHFDERDGAVKAMEEMNGKDLEGENIEIVFAKPPDQKRKERKAQRQAAKNQMYDDYYYYGPPHMPPPTRGRGRGGRGGYGYPPDYYGYEDYYDYYGYDYHNYRGGYEDPYYGYEDFQVGARGRGGRGARGAAPSRGRGAAPPRGRAGYSQRGGPGSARGVRGARGGAQQQRGRGVRGARGGRGGNVGGKRKADGYNQPDTKRRQTNNQNWGSQPIAQQPLQGGDHSGNYGYKSENQEFYQDTFGQQWK
As for B1, the binding entry was “binds”.
